From paper PMC5114727, “Biological characterization of chemically diverse compounds targeting the Plasmodium falciparum coenzyme A synthesis pathway” (Parasites & Vectors, 2016)

Columns and labels:
HEK293 cells = conditions: as previously reported; cited from earlier work
[1] = tested on: T. b. brucei trypomastigote; assay: T. b. brucei resazurin (Alamar Blue) viability assay; format: cell-based, Trypanosoma brucei brucei; conditions: HEK293 cytotoxicity from ref 22
Procedure: Compound activity against two members of another clinically important group of parasites, the kinetoplastids T. cruzi and T. b. brucei was determined. The sensitive high content imaging assay used to determine compound activity against T. cruzi assesses the intracellular amastigote life form of the parasite in the 3T3 host cell. […] The T. b. brucei assay employs the REDOX indicator Alamar Blue to assess viability, which was developed into a 384-well assay format.
Compound activity against T. b. brucei was assessed in a resazurin-based viability assay in concentration-response assays, without technical repeats, in two experimental replicates at a highest concentration of 40 μM, as previously described.

T. cruzi trypomastigotes = assay: T. cruzi trypomastigote PrestoBlue assay; format: cell-based, Trypanosoma cruzi; conditions: HEK293 cytotoxicity from ref 22
Procedure: Compound activity against T. cruzi trypomastigotes was assessed in two independent experiments, without technical repeats, at a final highest compound concentration of 40 μM in concentration-response PrestoBlue assay, as previously described.

T. cruzi amastigotes = assay: T. cruzi amastigote image-based assay in 3T3 host cells; format: cell-based, Trypanosoma cruzi
Procedure: The next step taken was to determine whether the activity of the compounds was confined to P. falciparum, or whether it extended to other protozoan parasites. Compound activity against two members of another clinically important group of parasites, the kinetoplastids T. cruzi and T. b. brucei was determined. The sensitive high content imaging assay used to determine compound activity against T. cruzi assesses the intracellular amastigote life form of the parasite in the 3T3 host cell. It is important to simultaneously assess compound activity against 3T3 cells to determine potential cytotoxicity against the host cell line, since this could result in a false positive outcome. The T. b. brucei assay employs the REDOX indicator Alamar Blue to assess viability, which was developed into a 384-well assay format.
Compound activity against T. cruzi amastigotes was assessed in an image-based assay in single point concentration-response and three biological replicates, at a final highest compound concentration of […], as previously described.

Row | Structure (SMILES) | SI (P. falciparum asexual stages over HEK293) (HEK293 cells) | SI over HEK293 (T. b. brucei trypomastigote) [1] | SI over HEK293 (T. cruzi trypomastigote) (T. cruzi trypomastigotes) | SI over 3T3 host cell (T. cruzi amastigote) (T. cruzi amastigotes)
1 | Cc1csc(Sc2ncnc3sccc23)n1 [Amb180780] | 333 |  |  | 
2 | CC(=O)c1ccc2c3c(onc13)-c1ccccc1C2=O [Amb3377585] | 18.3 and 18 | 14 | 4 | 1
3 | CC(=O)C1=C(c2ccccc2)C(=O)c2ccccc2C1=O [Amb4317088] | 1.9 | 15 | 6 | 2
4 | COc1ccc2c(=O)cc(C(Cl)(Cl)Cl)oc2c1 [MMV665820] | ~ 6 |  |  | 
5 | OC1CCCCC1C1(NC(=S)Nc2ccccc2)CCCCC1 (stereo not drawn) [MMV665980] | > 6 |  | > 9 | 
6 | CC1=CC(=O)C(C(C)C)=C/C1=N/OS(=O)(=O)c1ccccc1 [STK 740987] | > 105 | > 39 | > 59 | 

Where “and” joins values, the source holds several entries; their conditions need not be identical. Equal values may be shown once.
